± gives the standard error. Some of the results follow. Single values are uncertain here, since repeats match poorly.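 Every DNA sequence of one to five nucleotides was in the library. Extension ability overall was judged using a cutoff equal to the blocked version's mean plus three standard deviations; the probe detects only chains with at least seven added dT.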
What follows are sequences tested against terminal deoxynucleotidyl transferase (calf thymus) (UniProt P06526) (assay: TdT poly-dT extension signal (Cy3 hybridisation fluorescence, uncapped minus capped) (fluorescence a.u.); higher = more efficient initiation of TdT extension). Settings: initiator chemistry: D-DNA, free 3'-OH (5'-tethered via HEG linker).

Chains of the proteins cited; added tags and fusions are not shown. Lines headed by an entry give the natural chain unless they say otherwise; changes in a name come on top.
UniProt P06526: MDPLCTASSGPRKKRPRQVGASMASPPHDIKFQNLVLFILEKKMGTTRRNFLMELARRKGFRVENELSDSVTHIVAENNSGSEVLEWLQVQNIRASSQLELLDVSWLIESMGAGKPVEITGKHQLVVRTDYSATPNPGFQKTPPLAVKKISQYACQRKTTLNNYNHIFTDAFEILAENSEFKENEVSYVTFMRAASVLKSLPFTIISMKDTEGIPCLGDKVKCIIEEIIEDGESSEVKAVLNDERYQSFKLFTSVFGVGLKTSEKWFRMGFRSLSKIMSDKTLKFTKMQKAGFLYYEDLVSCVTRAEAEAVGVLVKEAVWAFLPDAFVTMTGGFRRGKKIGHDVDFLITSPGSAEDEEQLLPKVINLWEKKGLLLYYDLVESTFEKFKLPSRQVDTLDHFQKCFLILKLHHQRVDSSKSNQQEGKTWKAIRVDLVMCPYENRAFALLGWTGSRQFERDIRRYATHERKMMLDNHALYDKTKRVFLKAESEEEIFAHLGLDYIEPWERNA

Sequence	TdT poly-dT extension signal
AACT	3210 ± 290
CCCT	3240 ± 320
ACATG	3910 ± 360
GCTTG	3850 ± 340
GCACA	3930 ± 400
TTAGG	3460 ± 400
GCCGC	3270 ± 430
CTGAA	4110 ± 590
GTAA	3060 ± 380
GGGCG	4720 ± 420
ATGTA	3420 ± 330
GAATT	4010 ± 380
GGTGT	3800 ± 320
GGATC	2510 ± 360
TGATT	4380 ± 300
ACTAA	3820 ± 360
TCCCG	3300 ± 360
ACATT	4070 ± 310
TCTGC	3530 ± 280
TCTAT	3270 ± 350
CCTG	3880 ± 300
GGAA	3790 ± 560
TGTTG	3890 ± 440
CCCGT	4870 ± 530
AGAAC	3600 ± 490
GGCA	3350 ± 340

Sequence	TdT poly-dT extension signal
CGTCC	3190 ± 190
CCTC	2800 ± 410
ATCAT	3770 ± 460
ACGGG	3960 ± 520
AGGTG	3390 ± 340
TTGGA	2900 ± 650
ACGGA	4240 ± 500
AGCAG	3360 ± 900
GACTT	3190 ± 310
CTGG	4310 ± 320
CGCCC	3000 ± 310
CGTT	2930 ± 320
TGTCT	3410 ± 300
GCGGC	3550 ± 390
GCACT	3860 ± 480
TCTA	3090 ± 550
AGATT	3190 ± 290
TCTCC	2850 ± 240
TTCCT	3940 ± 310
TGTCG	4000 ± 250
AGGCT	3660 ± 280
TTGAC	2920 ± 360
GAAAG	4070 ± 460
GTACC	2920 ± 280
TTTCT	3830 ± 580
CAAA	3870 ± 410

Sequence	TdT poly-dT extension signal
GGTGA	2810 ± 590
ATGCA	3830 ± 720
TTGCG	4460 ± 600
CTGTT	4080 ± 400
GTCA	3410 ± 290
GACAG	4060 ± 730
AGAC	2780 ± 260
ACGAC	3150 ± 290
CATG	3800 ± 420
TCAGT	3830 ± 400
GGGTG	3920 ± 410
AGGGA	4210 ± 400
GAGGC	2810 ± 360
GTTA	3490 ± 490
CCCCT	3370 ± 260
TACTC	2960 ± 240
GTTTA	4140 ± 370
ACTGT	4160 ± 480
AGTAG	2330 ± 560
CAGCG	4340 ± 520
GGAT	3340 ± 300
ACCCC	3180 ± 310
GACCC	2660 ± 290
GGTGG	4600 ± 740
GCAGG	4300 ± 340
TTTCA	3510 ± 360

Some of the entries so far, with each value named:
ACCCC
  TdT poly-dT extension signal = 3180 ± 310
GACCC
  TdT poly-dT extension signal = 2660 ± 290
GGTGG
  TdT poly-dT extension signal = 4600 ± 740

Additional records follow.

Sequence	TdT poly-dT extension signal
TTCA	3540 ± 490
GAGAA	4480 ± 450
GTAT	3430 ± 380
TATAT	4180 ± 410
GGCTG	3220 ± 370
AGGGG	4880 ± 430
CTCAA	4300 ± 530
TGGGA	4420 ± 570
ATAA	3680 ± 270
AAATA	3630 ± 480
CACGG	4450 ± 750
CGGGC	3880 ± 330
CCGT	3970 ± 400
TCGTT	3010 ± 470
TGTT	3760 ± 280
CTGA	3820 ± 290
GGTCC	2850 ± 240
ACTGA	4020 ± 290
ATCCT	3490 ± 240
TGCGT	3660 ± 390
GAGT	3750 ± 420
TCTGG	3530 ± 490
TCCAC	3610 ± 190
GGCGA	4180 ± 420
GATA	3860 ± 400
AGGAC	2940 ± 300

Sequence	TdT poly-dT extension signal
CGTTC	2560 ± 340
CATC	3520 ± 280
ATTC	3130 ± 270
TGGC	2750 ± 400
CGACG	3880 ± 320
TCACC	2760 ± 290
GTGCT	3490 ± 510
TTGCA	3470 ± 430
CGGTC	3400 ± 370
CCGTA	4140 ± 360
GATTC	2620 ± 300
TAGGA	3600 ± 400
GCAG	4160 ± 600
GGCAA	4010 ± 390
GGCAG	3910 ± 460
AACTC	2630 ± 260
AACGA	3280 ± 460
GCAAT	4010 ± 380
TGTAC	2920 ± 430
CCTCA	4210 ± 260
GGGTT	4820 ± 330
GCACG	4350 ± 370
CTTAT	3630 ± 370
ATCGG	3520 ± 400
CAAG	4090 ± 230
TGCT	3490 ± 330

Sequence	TdT poly-dT extension signal
CCACT	3550 ± 220
GTCTT	3420 ± 320
AAAGG	3360 ± 440
AGCTG	3930 ± 450
GTTG	3620 ± 300
TCTAC	3610 ± 210
ATGAC	3360 ± 280
GTTTG	3780 ± 300
CAGGA	5070 ± 300
GGCGT	3930 ± 460
ACCC	3300 ± 310
TGTAT	4020 ± 540
ATCTG	2950 ± 450
TACTA	3360 ± 340
AGCT	3470 ± 440
TGCTT	3960 ± 670
TGATA	3200 ± 420
GGGA	3620 ± 450
ATAAA	3410 ± 420
CTGC	3300 ± 500
AATTT	3580 ± 340

Pulled one by one from above:
Sequence	TdT poly-dT extension signal
CTGA	3820 ± 290
ACGAC	3150 ± 290
